Binding data for 1 molecule are collected here from paper doi:10.1101/2025.09.09.675193.

Chains of the proteins cited; added tags and fusions are not shown. Lines headed by an entry give the natural chain unless they say otherwise; changes in a name come on top.
UniProt Q92547: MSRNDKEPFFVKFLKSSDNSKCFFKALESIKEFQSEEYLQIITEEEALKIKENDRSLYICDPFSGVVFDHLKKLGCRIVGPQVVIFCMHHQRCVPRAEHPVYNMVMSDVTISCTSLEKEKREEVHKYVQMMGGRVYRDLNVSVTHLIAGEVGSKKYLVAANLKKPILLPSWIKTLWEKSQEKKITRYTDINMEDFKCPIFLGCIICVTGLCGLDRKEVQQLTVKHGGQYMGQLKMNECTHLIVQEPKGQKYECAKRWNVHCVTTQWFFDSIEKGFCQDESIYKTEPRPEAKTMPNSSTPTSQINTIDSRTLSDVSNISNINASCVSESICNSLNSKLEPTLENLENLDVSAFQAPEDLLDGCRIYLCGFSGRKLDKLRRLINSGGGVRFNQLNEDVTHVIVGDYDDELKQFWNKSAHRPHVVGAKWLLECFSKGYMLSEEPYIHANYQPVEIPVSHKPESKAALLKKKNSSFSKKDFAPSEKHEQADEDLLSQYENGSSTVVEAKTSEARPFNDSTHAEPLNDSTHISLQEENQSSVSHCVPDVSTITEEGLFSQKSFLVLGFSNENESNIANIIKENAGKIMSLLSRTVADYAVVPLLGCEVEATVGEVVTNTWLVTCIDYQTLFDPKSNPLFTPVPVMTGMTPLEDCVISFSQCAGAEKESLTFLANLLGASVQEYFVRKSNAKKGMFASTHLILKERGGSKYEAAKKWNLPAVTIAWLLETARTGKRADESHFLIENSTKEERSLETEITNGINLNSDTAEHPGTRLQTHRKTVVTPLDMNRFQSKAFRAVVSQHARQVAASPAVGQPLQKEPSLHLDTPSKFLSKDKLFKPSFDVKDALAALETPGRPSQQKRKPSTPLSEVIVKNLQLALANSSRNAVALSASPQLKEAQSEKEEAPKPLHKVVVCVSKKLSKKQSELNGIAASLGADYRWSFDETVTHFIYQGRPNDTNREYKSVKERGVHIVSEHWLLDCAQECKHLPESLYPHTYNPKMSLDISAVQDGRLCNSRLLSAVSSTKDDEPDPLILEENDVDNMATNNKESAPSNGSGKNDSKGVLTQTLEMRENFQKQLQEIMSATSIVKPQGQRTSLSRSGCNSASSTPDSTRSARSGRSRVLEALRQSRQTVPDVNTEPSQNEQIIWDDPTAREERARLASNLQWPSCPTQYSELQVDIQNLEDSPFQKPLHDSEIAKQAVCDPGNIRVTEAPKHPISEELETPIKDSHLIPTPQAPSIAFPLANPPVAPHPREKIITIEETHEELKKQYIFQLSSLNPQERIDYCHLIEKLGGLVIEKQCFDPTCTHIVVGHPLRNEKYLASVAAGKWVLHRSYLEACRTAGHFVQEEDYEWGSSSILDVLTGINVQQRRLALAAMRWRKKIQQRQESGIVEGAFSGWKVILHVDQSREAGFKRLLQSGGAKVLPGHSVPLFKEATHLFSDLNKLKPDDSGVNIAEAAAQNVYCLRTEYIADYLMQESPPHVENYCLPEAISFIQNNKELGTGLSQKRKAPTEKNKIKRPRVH

Common to all, as to assay: co-IP
In experiment [1] the target is GFP-TOPBP1 BRCT7 mutant (K1317A) (human) (UniProt Q92547).
Experiment [2] deals with GFP-TOPBP1 BRCT5+7 double mutant (K704A and K1317A) (human) (UniProt Q92547).
Experiment [3] concerns the target GFP-TOPBP1 BRCT5 mutant (K704A) (human) (UniProt Q92547).
Experiment [4] addresses GFP-tagged WT TOPBP1 (human) (UniProt Q92547).

These are yes or no findings as the source states them, for the method shown. Binding seen in cells or lysates may run through a third protein. Some results given as binding are weak or reduced against the parent protein; the word gives no strength. Where a sequence is shown, tags or fusion partners need not be part of it.

B1: Halo-tagged DDIAS, wild type (protein, UniProt Q8IXT1-1 1-998)
chain: MNRRRKFLLASVLALQNSSFIYPSCQKCFSRIILVSKRSNCPKCGSTGESGNANYRYKLSLKVAESNKLFVITVFGSCLDTFFGLTATGLHRYIQDPNKIPETLDNDTTQNLLTKAVETCFVGQSFIFGVTNFENQPGQGSDASNFLQQCSDHKRKAKALVACQIVLPDPGIAGFTVIDYFHQLLQTFNFRKLQCDSQAPNNHLLALDHSNSDLSSIYTSDSTSDFFKSCSKDTFSKFWQPSLEFTCIVSQLTDNDDFSASEQSKAFGTLQQNRKSISIAEATGSSSCHDPIQDSWSLVSYMDKKSTAEKLGKELGLQAKELSAVHSSHHEIGVNDSNLFSLEMREPLESSNTKSFHSAVEIKNRSQHELPCFQHHGIDTPTSLQKRSACCPPSLLRLEETASSSQDGDPQIWDDLPFSESLNKFLAVLESEIAVTQADVSSRKHHVDNDIDKFHADHSRLSVTPQRTTGALHTPPIALRSSQVIVKANCSKDDFLFNCKGNLSPSVEKESQPDNKVEAVSVNHNGRDMSEYFLPNPYLSALSSSSKDLETIVTLKKTIRISPHRESDHSSLNNKYLNGCGEISVSEMNEKLTTLCYRKYNDVSDLCKLENKQYCRWSKNQDDSFTICRKLTYPLETLCNSPNRSTNTLKEMPWGHINNNVTQSYSIGYEGSYDASADLFDDIAKEMDIATEITKKSQDILLKWGTSLAESHPSESDFSLRSLSEDFIQPSQKLSLQSLSDSRHSRTCSPTPHFQSDSEYNFENSQDFVPCSQSTPISGFHQTRIHGINRAFKKPVFYSDLDGNYEKIRIFPENDKQQASPSCPKNIKTPSQKIRSPIVSGVSQPDVFNHYPFAECHETDSDEWVPPTTQKIFPSDMLGFQGIGLGKCLAAYHFPDQQELPRKKLKHIRQGTNKGLIKKKLKNMLAAVVTKKKTHKYNCKSSGWISKCPDIQVLAAPQLHPILGPDSCSEVKCCLPFSEKGPPSVCETRSAWSPELFS
In the case of B1, the binding entry in experiment [1] is “binds”; in experiment [2], “binds weakly”; in experiment [3], “binds”; in experiment [4] it was “binds”.
